Where a chain is given by its changes, count along the chain named. Names and notes keep the numbering of the source. No constants are given. Whether binding was seen depends on the method and setting. Some results given as binding are weak or reduced against the parent protein; the word gives no strength. Sequences can lack the tags named with a protein.

The values below come from article PMC5814396.

Assay in all cases: SDS-PAGE and anti-EGFP western blot (dimer band that survives SDS); biotinylated plasma-membrane fraction of groups of 15 cRNA-injected Xenopus oocytes, resolved on 3-8% Tris-Acetate gels; upper band taken as dimer that is kept during SDS-solubilization
Experiment [1] deals with wild-type NBCe1-A-EGFP (human) (UniProt Q9Y6R1).
Experiment [2] has as its target NBCe1-A-EGFP Q913R (human) (UniProt Q9Y6R1).
The target of experiment [3] is NBCe1-A-EGFP Q913E (human) (UniProt Q9Y6R1).
The target in experiment [4] is NBCe1-A-EGFP Q913C (human) (UniProt Q9Y6R1).
The target of experiment [5] is NBCe1-A-EGFP Q913K (human) (UniProt Q9Y6R1).
The target in experiment [6] is NBCe1-A-EGFP Q913L (human) (UniProt Q9Y6R1).
For experiment [7], the target named is NBCe1-A-EGFP Q913S (human) (UniProt Q9Y6R1).

B1: wild-type NBCe1-A-EGFP (protein, UniProt Q9Y6R1-2 1-1035)
chain: MSTENVEGKPSNLGERGRARSSTFLRVVQPMFNHSIFTSAVSPAAERIRFILGEEDDSPAPPQLFTELDELLAVDGQEMEWKETARWIKFEEKVEQGGERWSKPHVATLSLHSLFELRTCMEKGSIMLDREASSLPQLVEMIVDHQIETGLLKPELKDKVTYTLLRKHRHQTKKSNLRSLADIGKTVSSASRMFTNPDNGSPAMTHRNLTSSSLNDISDKPEKDQLKNKFMKKLPRDAEASNVLVGEVDFLDTPFIAFVRLQQAVMLGALTEVPVPTRFLFILLGPKGKAKSYHEIGRAIATLMSDEVFHDIAYKAKDRHDLIAGIDEFLDEVIVLPPGEWDPAIRIEPPKSLPSSDKRKNMYSGGENVQMNGDTPHDGGHGGGGHGDCEELQRTGRFCGGLIKDIKRKAPFFASDFYDALNIQALSAILFIYLATVTNAITFGGLLGDATDNMQGVLESFLGTAVSGAIFCLFAGQPLTILSSTGPVLVFERLLFNFSKDNNFDYLEFRLWIGLWSAFLCLILVATDASFLVQYFTRFTEEGFSSLISFIFIYDAFKKMIKLADYYPINSNFKVGYNTLFSCTCVPPDPANISISNDTTLAPEYLPTMSSTDMYHNTTFDWAFLSKKECSKYGGNLVGNNCNFVPDITLMSFILFLGTYTSSMALKKFKTSPYFPTTARKLISDFAIILSILIFCVIDALVGVDTPKLIVPSEFKPTSPNRGWFVPPFGENPWWVCLAAAIPALLVTILIFMDQQITAVIVNRKEHKLKKGAGYHLDLFWVAILMVICSLMALPWYVAATVISIAHIDSLKMETETSAPGEQPKFLGVREQRVTGTLVFILTGLSVFMAPILKFIPMPVLYGVFLYMGVASLNGVQFMDRLKLLLMPLKHQPDFIYLRHVPLRRVHLFTFLQVLCLALLWILKSTVAAIIFPVMILALVAVRKGMDYLFSQHDLSFLDDVIPEKDKKKKEDEKKKKKKKGSLDSDNDDSDCPYSEKVPSIKIPMDIMEQQPFLSDSKPSDRERSPTFLERHTSC
On to B1, for which the binding entry in experiment [1] is recorded as “binds”.

B2: NBCe1-A-EGFP Q913R (protein, UniProt Q9Y6R1-2 1-1035)
chain: B1 chain with Q913R
For B2, in experiment [2], the binding entry is “binds”.

B3: NBCe1-A-EGFP Q913E (protein, UniProt Q9Y6R1-2 1-1035)
chain: B1 chain with Q913E
Consider B3, for which, in experiment [3], the binding entry was “binds”.

B4: NBCe1-A-EGFP Q913C (protein, UniProt Q9Y6R1-2 1-1035)
chain: B1 chain with Q913C
Regarding B4, in experiment [4], the binding result is listed as “binds”.

B5: NBCe1-A-EGFP Q913K (protein, UniProt Q9Y6R1-2 1-1035)
chain: B1 chain with Q913K
For B5, the binding entry in experiment [5] is on record as “binds”.

B6: NBCe1-A-EGFP Q913L (protein, UniProt Q9Y6R1-2 1-1035)
chain: B1 chain with Q913L
Take B6: in experiment [6], the binding entry is on record as “binds”.

B7: NBCe1-A-EGFP Q913S (protein, UniProt Q9Y6R1-2 1-1035)
chain: B1 chain with Q913S
In the case of B7, in experiment [7], the binding entry was “binds”.
